Results published in the supplement of paper PMC6411743.
± gives the standard deviation of the averaged measurements. The list shows a part of the results.

The chains behind the UniProt entries cited, without tags or fusion partners. Where a name states a change or a piece, a line headed by the entry shows the natural chain unless it says otherwise.
UniProt P04053: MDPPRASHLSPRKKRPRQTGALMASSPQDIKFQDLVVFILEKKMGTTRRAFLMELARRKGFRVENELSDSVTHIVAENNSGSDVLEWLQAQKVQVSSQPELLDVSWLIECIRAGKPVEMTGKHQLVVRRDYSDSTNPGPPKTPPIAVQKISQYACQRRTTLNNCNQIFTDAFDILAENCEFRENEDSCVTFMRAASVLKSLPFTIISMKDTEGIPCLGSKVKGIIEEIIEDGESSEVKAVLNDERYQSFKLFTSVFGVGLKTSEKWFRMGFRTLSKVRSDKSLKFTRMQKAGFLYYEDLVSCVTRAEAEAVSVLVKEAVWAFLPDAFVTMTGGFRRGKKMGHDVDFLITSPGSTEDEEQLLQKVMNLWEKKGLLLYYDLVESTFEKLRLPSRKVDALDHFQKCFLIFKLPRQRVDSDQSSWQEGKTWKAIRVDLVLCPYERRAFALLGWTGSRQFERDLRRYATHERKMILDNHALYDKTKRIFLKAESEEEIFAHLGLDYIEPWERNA
UniProt O95671: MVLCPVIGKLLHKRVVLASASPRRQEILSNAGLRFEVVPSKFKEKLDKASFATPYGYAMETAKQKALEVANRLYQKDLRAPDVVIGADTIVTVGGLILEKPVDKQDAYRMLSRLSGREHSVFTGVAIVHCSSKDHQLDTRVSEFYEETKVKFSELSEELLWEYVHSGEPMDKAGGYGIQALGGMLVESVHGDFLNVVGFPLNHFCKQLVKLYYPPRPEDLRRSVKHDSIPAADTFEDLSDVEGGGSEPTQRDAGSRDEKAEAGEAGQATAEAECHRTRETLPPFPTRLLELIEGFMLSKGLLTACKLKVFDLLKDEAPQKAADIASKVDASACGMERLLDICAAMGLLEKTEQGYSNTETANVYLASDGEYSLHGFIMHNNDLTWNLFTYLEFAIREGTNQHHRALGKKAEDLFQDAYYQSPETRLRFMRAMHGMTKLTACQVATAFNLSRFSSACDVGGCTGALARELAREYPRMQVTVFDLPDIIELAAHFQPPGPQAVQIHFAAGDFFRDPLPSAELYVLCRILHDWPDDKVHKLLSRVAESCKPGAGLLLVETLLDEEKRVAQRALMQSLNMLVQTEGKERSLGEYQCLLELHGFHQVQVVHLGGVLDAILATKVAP
UniProt O75369, whole entry: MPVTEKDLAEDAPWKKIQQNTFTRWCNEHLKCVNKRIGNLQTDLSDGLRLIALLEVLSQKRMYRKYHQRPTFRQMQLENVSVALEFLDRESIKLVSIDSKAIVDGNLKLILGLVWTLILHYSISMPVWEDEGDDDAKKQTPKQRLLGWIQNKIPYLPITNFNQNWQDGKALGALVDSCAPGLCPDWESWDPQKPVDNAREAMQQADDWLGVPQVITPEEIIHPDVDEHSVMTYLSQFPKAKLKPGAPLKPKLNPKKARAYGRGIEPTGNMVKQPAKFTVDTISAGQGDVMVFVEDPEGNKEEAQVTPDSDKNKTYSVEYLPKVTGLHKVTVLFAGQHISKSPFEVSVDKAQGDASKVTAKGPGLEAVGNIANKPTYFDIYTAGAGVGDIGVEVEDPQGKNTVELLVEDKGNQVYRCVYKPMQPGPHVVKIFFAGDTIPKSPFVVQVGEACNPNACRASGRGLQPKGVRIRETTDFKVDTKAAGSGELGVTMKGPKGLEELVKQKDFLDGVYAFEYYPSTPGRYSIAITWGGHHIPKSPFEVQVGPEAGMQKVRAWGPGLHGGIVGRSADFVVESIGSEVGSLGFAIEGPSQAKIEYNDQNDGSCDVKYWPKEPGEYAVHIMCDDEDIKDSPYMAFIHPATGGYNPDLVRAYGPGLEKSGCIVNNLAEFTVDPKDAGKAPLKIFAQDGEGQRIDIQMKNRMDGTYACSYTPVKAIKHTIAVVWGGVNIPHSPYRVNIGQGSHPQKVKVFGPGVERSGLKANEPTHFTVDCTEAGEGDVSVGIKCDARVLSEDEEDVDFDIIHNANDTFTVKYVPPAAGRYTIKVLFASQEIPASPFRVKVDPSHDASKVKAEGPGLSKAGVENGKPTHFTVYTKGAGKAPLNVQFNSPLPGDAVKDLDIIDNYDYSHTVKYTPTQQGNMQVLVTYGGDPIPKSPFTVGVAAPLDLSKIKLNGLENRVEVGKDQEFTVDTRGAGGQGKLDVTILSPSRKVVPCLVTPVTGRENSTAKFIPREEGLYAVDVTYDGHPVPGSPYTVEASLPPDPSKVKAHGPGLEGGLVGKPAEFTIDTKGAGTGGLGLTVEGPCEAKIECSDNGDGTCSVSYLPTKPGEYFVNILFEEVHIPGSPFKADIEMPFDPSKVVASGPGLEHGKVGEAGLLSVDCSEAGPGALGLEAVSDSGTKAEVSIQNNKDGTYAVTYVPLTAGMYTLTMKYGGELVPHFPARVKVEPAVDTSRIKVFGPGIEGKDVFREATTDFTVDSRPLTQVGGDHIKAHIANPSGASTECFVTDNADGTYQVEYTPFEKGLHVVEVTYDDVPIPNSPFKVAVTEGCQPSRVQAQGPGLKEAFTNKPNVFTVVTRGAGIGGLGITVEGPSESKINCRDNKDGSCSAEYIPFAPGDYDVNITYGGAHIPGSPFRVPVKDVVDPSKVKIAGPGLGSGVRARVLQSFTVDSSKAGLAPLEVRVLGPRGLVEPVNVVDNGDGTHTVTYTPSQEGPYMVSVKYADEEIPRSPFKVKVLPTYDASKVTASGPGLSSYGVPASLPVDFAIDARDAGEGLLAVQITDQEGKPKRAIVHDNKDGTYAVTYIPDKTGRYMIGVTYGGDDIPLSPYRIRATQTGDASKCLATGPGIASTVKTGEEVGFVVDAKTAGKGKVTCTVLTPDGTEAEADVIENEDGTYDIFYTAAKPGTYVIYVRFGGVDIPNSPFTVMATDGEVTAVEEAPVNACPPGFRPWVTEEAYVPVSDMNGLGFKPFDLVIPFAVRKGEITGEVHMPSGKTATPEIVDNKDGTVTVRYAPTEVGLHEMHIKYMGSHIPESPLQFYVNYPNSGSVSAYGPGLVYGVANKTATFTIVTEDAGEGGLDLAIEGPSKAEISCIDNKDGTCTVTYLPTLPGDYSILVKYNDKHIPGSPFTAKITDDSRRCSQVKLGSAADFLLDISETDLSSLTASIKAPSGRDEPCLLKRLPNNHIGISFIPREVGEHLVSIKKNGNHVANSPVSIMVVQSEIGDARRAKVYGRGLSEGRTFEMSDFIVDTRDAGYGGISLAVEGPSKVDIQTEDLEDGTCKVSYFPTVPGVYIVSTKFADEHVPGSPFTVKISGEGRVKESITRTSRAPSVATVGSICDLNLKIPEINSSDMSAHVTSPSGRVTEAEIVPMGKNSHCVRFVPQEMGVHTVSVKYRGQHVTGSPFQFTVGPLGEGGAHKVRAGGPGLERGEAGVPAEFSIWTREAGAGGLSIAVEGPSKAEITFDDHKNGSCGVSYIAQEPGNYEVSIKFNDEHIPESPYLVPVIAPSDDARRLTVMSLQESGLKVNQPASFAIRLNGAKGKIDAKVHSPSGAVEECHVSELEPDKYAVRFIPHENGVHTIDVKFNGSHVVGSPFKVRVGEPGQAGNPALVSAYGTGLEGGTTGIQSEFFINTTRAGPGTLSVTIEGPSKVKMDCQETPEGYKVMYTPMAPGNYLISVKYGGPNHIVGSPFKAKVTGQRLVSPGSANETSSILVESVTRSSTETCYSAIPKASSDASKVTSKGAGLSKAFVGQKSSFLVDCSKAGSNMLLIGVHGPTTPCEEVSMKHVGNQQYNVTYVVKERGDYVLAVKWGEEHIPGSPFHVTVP
UniProt O95696: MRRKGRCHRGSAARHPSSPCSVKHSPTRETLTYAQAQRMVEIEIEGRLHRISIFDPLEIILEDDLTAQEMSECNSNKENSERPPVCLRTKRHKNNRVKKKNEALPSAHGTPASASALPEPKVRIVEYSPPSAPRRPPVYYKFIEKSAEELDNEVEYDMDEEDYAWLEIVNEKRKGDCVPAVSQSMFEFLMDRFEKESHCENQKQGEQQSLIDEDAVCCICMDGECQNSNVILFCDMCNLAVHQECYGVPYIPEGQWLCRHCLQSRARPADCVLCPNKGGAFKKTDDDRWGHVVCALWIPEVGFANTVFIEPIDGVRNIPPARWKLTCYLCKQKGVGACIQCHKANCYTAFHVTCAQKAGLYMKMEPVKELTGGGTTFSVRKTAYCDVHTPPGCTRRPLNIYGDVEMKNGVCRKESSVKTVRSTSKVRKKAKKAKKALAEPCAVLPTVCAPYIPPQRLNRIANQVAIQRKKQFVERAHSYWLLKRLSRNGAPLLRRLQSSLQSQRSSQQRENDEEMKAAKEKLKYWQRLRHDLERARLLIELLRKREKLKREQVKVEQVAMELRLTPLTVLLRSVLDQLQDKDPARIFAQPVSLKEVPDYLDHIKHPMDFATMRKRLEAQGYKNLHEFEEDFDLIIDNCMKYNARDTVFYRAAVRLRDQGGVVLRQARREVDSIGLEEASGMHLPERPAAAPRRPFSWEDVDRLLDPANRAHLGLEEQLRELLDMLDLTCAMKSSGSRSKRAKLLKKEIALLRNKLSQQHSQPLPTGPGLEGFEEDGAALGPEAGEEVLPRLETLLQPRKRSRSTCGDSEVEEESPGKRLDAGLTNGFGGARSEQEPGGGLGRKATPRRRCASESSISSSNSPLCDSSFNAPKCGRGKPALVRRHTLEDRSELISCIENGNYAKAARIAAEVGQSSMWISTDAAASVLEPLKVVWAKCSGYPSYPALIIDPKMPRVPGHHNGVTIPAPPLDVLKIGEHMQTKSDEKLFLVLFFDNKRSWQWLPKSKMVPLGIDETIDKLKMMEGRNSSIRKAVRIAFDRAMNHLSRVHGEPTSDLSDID
UniProt O95239: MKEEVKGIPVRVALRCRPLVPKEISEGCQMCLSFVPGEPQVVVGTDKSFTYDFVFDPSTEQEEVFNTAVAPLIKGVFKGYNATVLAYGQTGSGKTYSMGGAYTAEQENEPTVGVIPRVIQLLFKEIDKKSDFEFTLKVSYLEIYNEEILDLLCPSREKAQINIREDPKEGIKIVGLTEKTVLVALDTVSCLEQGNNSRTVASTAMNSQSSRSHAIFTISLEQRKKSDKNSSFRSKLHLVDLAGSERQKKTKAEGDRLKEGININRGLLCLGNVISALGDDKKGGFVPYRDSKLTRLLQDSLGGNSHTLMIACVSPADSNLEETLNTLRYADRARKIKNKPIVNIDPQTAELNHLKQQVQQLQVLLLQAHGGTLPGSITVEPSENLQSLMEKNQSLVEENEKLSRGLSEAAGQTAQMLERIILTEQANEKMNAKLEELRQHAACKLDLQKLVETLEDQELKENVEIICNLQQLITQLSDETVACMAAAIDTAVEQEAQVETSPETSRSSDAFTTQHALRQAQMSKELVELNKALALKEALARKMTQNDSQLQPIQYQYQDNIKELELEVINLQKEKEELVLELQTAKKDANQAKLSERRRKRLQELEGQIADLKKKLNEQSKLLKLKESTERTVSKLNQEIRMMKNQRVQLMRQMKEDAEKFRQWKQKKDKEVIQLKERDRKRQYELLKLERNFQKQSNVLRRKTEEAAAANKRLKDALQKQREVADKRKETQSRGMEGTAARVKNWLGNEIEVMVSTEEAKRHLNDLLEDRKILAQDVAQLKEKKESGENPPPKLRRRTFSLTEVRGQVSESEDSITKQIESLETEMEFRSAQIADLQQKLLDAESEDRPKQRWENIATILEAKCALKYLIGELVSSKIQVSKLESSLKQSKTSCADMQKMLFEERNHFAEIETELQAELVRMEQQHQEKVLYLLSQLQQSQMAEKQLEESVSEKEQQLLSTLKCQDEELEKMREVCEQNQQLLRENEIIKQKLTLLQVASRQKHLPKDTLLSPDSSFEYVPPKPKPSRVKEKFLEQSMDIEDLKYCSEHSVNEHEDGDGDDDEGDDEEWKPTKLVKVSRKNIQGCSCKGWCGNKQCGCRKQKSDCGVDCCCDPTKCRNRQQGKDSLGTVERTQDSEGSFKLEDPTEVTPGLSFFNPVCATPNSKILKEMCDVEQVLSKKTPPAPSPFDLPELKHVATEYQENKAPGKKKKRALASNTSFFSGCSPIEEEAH
UniProt P04818: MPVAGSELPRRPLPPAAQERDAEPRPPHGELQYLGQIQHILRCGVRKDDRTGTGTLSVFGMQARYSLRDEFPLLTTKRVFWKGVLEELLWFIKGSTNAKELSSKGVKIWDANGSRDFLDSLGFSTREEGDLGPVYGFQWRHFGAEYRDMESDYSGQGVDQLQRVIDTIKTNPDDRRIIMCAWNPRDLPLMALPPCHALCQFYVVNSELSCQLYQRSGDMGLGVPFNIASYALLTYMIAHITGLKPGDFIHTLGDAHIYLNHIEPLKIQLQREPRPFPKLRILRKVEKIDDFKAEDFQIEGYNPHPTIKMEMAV
UniProt O95372: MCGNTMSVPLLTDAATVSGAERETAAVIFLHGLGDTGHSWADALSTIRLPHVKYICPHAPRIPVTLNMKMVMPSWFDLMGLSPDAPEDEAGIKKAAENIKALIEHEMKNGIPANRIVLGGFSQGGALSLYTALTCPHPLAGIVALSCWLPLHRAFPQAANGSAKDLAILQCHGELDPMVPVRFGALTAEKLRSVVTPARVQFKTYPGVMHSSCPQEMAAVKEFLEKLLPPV

Compound: Nc1nc2c(ncn2[C@@H]2O[C@H](COP(=O)(O)OP(=O)(O)OP(=O)(O)O)[C@@H](O)[C@H]2O)c(=O)[nH]1 [guanosine triphosphate]
Assay: NP40-soluble protein abundance relative to vehicle (solubility fold change) (ratio); higher = more soluble protein in presence of GTP
Procedure, shortened: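 Eight concentrations, 0.1 to 10 mM, were tested on Jurkat crude lysate for 10 min at room temperature and then 3 min at 37 °C, in three independent experiments. The lysate was solubilised with 0.8% NP40 and benzonase, ultracentrifuged, and the supernatant TMT-labelled for LC-MS/MS. Each value is the fold change against the detergent-processed vehicle in its own replicate, from vsn-normalised intensities.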

Target	NP40-soluble protein abundance (concentration: 0.1mM)	NP40-soluble protein abundance (concentration: 0.5mM)	NP40-soluble protein abundance (concentration: 1mM)	NP40-soluble protein abundance (concentration: 2mM)	NP40-soluble protein abundance (concentration: 4mM)	NP40-soluble protein abundance (concentration: 6mM)	NP40-soluble protein abundance (concentration: 8mM)	NP40-soluble protein abundance (concentration: 10mM)
P00403 and related entries (UniProt Q8IVS2)	1.06 ± 0.15	1.07 ± 0.15	0.952 ± 0.12	0.978 ± 0.2	0.963 ± 0.15	0.941 ± 0.14	0.883 ± 0.14	0.89 ± 0.17
UniProt O95197 and related entries	1.03 ± 0.035	0.911 ± 0.079	1.01 ± 0.03	0.895 ± 0.052	0.941 ± 0.048	0.895 ± 0.059	0.9 ± 0.068	0.813 ± 0.079
UniProt O75525 and related entries	0.982 ± 0.018	1.02 ± 0.021	1.1 ± 0.066	1.14 ± 0.063	1.17 ± 0.061	1.2 ± 0.047	1.24 ± 0.11	1.27 ± 0.11
HEXIM1 (UniProt O94992)	0.925 ± 0.032	0.88 ± 0.09	1.03 ± 0.024	1.01 ± 0.093	1.05 ± 0.054	1.08 ± 0.038	1.13 ± 0.053	1.25 ± 0.032
UniProt O75164	0.979 ± 0.057	0.993 ± 0.082	0.9597 ± 0.0062	1.02 ± 0.12	0.984 ± 0.032	0.949 ± 0.028	0.927 ± 0.045	0.905 ± 0.082
UniProt O75093 and related entries	0.974 ± 0.065	0.998 ± 0.031	0.967 ± 0.035	1.03 ± 0.062	1.13 ± 0.14	1.11 ± 0.051	1.13 ± 0.059	1.19 ± 0.099
UniProt O95425 and related entries	0.879 ± 0.088	0.849 ± 0.12	0.96 ± 0.1	0.875 ± 0.15	0.885 ± 0.13	0.886 ± 0.14	0.885 ± 0.094	0.878 ± 0.15
UniProt P04053 and related entries	1.14 ± 0.083	1.13 ± 0.06	1.01 ± 0.056	1.05 ± 0.057	1.05 ± 0.053	1.02 ± 0.032	0.947 ± 0.1	0.923 ± 0.051
UniProt P04150 and related entries	0.899 ± 0.13	0.946 ± 0.032	1.14 ± 0.072	1.07 ± 0.029	1.01 ± 0.043	0.999 ± 0.055	1.02 ± 0.046	1.05 ± 0.069
UniProt O95671 and related entries	0.998 ± 0.014	1.01 ± 0.041	0.914 ± 0.02	0.916 ± 0.057	0.902 ± 0.048	0.916 ± 0.042	0.878 ± 0.046	0.858 ± 0.068
UniProt O95644 and related entries	1.01 ± 0.2	1.07 ± 0.094	1.25 ± 0.18	1.37 ± 0.17	1.31 ± 0.29	1.34 ± 0.19	1.17 ± 0.053	1.34 ± 0.3
UniProt O75369-8|O75369-9|O75369 and related entries	0.958 ± 0.071	0.978 ± 0.064	0.939 ± 0.072	0.902 ± 0.066	0.896 ± 0.063	0.908 ± 0.053	0.925 ± 0.076	0.895 ± 0.071
UniProt O95758-2|O95758-6|O95758 and related entries	1.02 ± 0.074	0.974 ± 0.052	1.02 ± 0.064	1.05 ± 0.11	0.994 ± 0.088	0.972 ± 0.05	0.959 ± 0.058	0.951 ± 0.038
ACSL3 (UniProt O95573)	1.05 ± 0.016	1.05 ± 0.049	0.942 ± 0.013	0.949 ± 0.037	0.924 ± 0.029	0.893 ± 0.035	0.914 ± 0.018	0.853 ± 0.021
UniProt P04234	0.872 ± 0.068	0.829 ± 0.043	0.88 ± 0.055	0.892 ± 0.048	0.88 ± 0.057	0.872 ± 0.041	0.802 ± 0.096	0.877 ± 0.037
N4BP1 (UniProt O75113)	1.01 ± 0.034	1.01 ± 0.032	1.01 ± 0.073	0.982 ± 0.13	0.959 ± 0.11	1.02 ± 0.18	0.998 ± 0.091	0.953 ± 0.065
HPRT1 (UniProt P00492)	1.01 ± 0.059	1 ± 0.035	0.91 ± 0.022	0.905 ± 0.044	0.913 ± 0.033	0.88 ± 0.024	0.835 ± 0.071	0.823 ± 0.093
UniProt O95696 and related entries	0.934 ± 0.17	0.983 ± 0.14	1.02 ± 0.1	1.08 ± 0.085	1.06 ± 0.17	1.08 ± 0.17	1.08 ± 0.17	1.18 ± 0.14
UniProt P04899 and related entries	1.04 ± 0.033	1.03 ± 0.012	0.987 ± 0.011	0.9841 ± 0.007	0.988 ± 0.035	0.963 ± 0.023	0.934 ± 0.018	0.908 ± 0.069
FARS2 (UniProt O95363)	0.952 ± 0.067	0.937 ± 0.11	0.931 ± 0.1	0.918 ± 0.066	0.951 ± 0.059	0.905 ± 0.049	0.913 ± 0.12	0.884 ± 0.06
KIF4A (UniProt O95239)	1.01 ± 0.018	1.04 ± 0.021	1.016 ± 0.0075	1.01 ± 0.029	0.993 ± 0.018	1 ± 0.015	1.03 ± 0.037	1 ± 0.027
KBTBD11 (UniProt O94819)	1.107 ± 0.0075	1.038 ± 0.0096	0.988 ± 0.096	1.15 ± 0.02	0.958 ± 0.091	0.981 ± 0.017	1.04 ± 0.029	0.924 ± 0.044
NDUFS6 (UniProt O75380)	0.927 ± 0.015	0.981 ± 0.023	1.05 ± 0.026	1.04 ± 0.059	0.999 ± 0.073	1.05 ± 0.058	1.06 ± 0.12	1.1 ± 0.16
TYMS (UniProt P04818)	0.939 ± 0.027	0.967 ± 0.04	0.916 ± 0.048	0.898 ± 0.015	0.855 ± 0.029	0.879 ± 0.027	0.831 ± 0.057	0.844 ± 0.057
LYPLA2 (UniProt O95372)	0.9143 ± 0.0062	0.859 ± 0.029	0.922 ± 0.037	0.928 ± 0.034	0.917 ± 0.034	0.869 ± 0.039	0.831 ± 0.12	0.887 ± 0.062
UniProt O95243 and related entries	1.04 ± 0.033	0.984 ± 0.083	1.06 ± 0.012	1.07 ± 0.059	1.18 ± 0.11	1.17 ± 0.055	1.15 ± 0.076	1.054 ± 0.0097
TOX (UniProt O94900)	0.978 ± 0.065	0.931 ± 0.042	1.01 ± 0.059	0.944 ± 0.021	0.934 ± 0.1	0.933 ± 0.069	0.984 ± 0.013	0.999 ± 0.047
NBN (UniProt O60934)	1.04 ± 0.023	1.06 ± 0.039	1.02 ± 0.045	1.04 ± 0.04	0.98 ± 0.042	1.03 ± 0.037	1.02 ± 0.055	1.03 ± 0.05
GLRX3 (UniProt O76003)	0.92 ± 0.052	0.946 ± 0.058	0.934 ± 0.068	0.882 ± 0.088	0.864 ± 0.075	0.885 ± 0.085	0.885 ± 0.035	0.871 ± 0.081
UniProt P04920-3	1.06 ± 0.096	1.04 ± 0.037	1.04 ± 0.055	0.992 ± 0.026	1.01 ± 0.037	1.01 ± 0.024	1.04 ± 0.058	1.06 ± 0.23

Full records, quoted from the list. Values in the order: NP40-soluble protein abundance (concentration: 0.1mM)	NP40-soluble protein abundance (concentration: 0.5mM)	NP40-soluble protein abundance (concentration: 1mM)	NP40-soluble protein abundance (concentration: 2mM)	NP40-soluble protein abundance (concentration: 4mM)	NP40-soluble protein abundance (concentration: 6mM)	NP40-soluble protein abundance (concentration: 8mM)	NP40-soluble protein abundance (concentration: 10mM)
ACSL3 (UniProt O95573) is entered as 1.05 ± 0.016	1.05 ± 0.049	0.942 ± 0.013	0.949 ± 0.037	0.924 ± 0.029	0.893 ± 0.035	0.914 ± 0.018	0.853 ± 0.021
UniProt O95644 and related entries is entered as 1.01 ± 0.2	1.07 ± 0.094	1.25 ± 0.18	1.37 ± 0.17	1.31 ± 0.29	1.34 ± 0.19	1.17 ± 0.053	1.34 ± 0.3
